These are yes or no findings as the source states them, for the method shown. In cells and extracts the contact can be indirect. Some entries that bind do so weakly or less than the wild type. For part of these data: Sequences can lack the tags named with a protein.
What was measured:
FLAG-p43 (human), Q12904 = molecular target: T1, FLAG-p43 (human), Q12904; assay: co-IP; MSC purification: 293T transfected with FLAG-ArgRS or FLAG-p43, lysate on anti-FLAG M2 affinity gel 2 h at 4 °C, washed with PBS four times, eluted with 3xFLAG peptides; Coomassie staining and Western blots; details: remark: other sources report otherwise
T1 chain: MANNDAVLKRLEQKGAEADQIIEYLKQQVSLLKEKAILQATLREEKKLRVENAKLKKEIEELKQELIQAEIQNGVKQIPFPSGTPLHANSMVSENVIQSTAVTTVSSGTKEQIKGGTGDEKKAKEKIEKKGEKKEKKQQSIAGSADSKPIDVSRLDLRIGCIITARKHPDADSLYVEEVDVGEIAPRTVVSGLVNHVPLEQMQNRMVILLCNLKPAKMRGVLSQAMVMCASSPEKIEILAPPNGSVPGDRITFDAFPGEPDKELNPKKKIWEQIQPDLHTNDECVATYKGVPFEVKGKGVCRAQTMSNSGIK

Sequences of proteins named here, by UniProt entry; tags and fusion partners are left off. Residues count along the entry.
UniProt P07384: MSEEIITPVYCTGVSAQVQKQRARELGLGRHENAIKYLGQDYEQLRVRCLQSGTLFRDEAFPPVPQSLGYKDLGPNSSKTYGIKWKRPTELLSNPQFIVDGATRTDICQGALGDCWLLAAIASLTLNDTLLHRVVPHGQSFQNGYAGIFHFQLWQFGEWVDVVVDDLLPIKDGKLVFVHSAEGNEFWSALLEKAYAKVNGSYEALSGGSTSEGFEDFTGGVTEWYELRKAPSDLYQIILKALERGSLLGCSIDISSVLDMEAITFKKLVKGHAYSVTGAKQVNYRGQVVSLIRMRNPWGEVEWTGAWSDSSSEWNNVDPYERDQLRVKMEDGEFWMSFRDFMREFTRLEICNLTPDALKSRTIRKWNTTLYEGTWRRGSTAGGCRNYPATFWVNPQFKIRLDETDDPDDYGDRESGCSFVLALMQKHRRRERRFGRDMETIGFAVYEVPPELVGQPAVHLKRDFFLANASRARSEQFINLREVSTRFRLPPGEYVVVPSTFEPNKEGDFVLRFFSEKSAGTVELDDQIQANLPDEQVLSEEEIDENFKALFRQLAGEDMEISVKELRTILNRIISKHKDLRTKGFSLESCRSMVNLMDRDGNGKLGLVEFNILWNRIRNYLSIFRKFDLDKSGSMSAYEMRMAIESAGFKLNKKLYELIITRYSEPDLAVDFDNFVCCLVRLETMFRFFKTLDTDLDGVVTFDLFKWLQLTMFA
UniProt P17655, residues 20-700: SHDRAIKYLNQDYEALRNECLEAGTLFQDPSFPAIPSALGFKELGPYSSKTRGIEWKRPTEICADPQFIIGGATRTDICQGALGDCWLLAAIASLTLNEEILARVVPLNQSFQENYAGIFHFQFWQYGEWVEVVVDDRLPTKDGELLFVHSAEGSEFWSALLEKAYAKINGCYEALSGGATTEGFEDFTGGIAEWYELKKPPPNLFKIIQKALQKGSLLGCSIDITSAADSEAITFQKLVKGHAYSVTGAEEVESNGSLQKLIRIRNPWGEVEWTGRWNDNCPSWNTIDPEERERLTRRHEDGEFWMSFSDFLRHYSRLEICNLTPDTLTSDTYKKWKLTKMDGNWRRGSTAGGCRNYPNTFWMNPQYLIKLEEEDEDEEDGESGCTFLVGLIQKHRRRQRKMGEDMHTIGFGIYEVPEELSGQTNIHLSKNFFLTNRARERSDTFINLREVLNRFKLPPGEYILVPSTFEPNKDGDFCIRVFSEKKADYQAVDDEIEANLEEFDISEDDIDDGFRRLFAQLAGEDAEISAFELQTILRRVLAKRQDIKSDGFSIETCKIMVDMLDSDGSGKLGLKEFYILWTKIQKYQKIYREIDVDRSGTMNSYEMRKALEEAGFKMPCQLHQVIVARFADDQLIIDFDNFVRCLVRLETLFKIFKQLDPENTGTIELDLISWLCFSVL

[1] = molecular target: T2, FLAG-ArgRS (human), P54136; assay: as above; details: remark: other sources report otherwise
T2 chain: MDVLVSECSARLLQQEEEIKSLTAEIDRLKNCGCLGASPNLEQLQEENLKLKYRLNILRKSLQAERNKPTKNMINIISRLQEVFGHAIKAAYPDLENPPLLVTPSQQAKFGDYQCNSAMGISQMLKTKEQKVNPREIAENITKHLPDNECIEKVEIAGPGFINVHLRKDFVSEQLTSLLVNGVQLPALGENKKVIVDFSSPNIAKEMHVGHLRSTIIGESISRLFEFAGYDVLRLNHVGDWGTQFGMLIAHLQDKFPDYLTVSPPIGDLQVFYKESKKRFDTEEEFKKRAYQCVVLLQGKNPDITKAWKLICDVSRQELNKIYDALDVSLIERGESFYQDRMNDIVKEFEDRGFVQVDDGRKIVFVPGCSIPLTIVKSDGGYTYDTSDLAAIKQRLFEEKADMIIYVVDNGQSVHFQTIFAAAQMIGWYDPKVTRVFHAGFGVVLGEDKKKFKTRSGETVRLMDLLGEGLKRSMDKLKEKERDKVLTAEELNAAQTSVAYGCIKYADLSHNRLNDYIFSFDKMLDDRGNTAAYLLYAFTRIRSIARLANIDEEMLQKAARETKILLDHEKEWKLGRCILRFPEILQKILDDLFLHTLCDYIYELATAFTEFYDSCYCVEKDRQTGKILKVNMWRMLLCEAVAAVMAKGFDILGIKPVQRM

[2] = molecular target: T2, FLAG-ArgRS (human), P54136; assay: co-IP; 293T extracts overexpressing FLAG-tagged full-length or truncated ArgRS, p43 or GlnRS; IP with FLAG antibody, Western blot with antibodies against MSC components; details: remark: other sources report otherwise
[3] = molecular target: T3, FLAG-EPRS (human), P07814; assay: co-IP; 293T co-overexpressing FLAG-EPRS, MetRS-His6 and AspRS-Myc; purified with anti-FLAG affinity gel; Western blot; details: remark: other sources report otherwise
T3 chain: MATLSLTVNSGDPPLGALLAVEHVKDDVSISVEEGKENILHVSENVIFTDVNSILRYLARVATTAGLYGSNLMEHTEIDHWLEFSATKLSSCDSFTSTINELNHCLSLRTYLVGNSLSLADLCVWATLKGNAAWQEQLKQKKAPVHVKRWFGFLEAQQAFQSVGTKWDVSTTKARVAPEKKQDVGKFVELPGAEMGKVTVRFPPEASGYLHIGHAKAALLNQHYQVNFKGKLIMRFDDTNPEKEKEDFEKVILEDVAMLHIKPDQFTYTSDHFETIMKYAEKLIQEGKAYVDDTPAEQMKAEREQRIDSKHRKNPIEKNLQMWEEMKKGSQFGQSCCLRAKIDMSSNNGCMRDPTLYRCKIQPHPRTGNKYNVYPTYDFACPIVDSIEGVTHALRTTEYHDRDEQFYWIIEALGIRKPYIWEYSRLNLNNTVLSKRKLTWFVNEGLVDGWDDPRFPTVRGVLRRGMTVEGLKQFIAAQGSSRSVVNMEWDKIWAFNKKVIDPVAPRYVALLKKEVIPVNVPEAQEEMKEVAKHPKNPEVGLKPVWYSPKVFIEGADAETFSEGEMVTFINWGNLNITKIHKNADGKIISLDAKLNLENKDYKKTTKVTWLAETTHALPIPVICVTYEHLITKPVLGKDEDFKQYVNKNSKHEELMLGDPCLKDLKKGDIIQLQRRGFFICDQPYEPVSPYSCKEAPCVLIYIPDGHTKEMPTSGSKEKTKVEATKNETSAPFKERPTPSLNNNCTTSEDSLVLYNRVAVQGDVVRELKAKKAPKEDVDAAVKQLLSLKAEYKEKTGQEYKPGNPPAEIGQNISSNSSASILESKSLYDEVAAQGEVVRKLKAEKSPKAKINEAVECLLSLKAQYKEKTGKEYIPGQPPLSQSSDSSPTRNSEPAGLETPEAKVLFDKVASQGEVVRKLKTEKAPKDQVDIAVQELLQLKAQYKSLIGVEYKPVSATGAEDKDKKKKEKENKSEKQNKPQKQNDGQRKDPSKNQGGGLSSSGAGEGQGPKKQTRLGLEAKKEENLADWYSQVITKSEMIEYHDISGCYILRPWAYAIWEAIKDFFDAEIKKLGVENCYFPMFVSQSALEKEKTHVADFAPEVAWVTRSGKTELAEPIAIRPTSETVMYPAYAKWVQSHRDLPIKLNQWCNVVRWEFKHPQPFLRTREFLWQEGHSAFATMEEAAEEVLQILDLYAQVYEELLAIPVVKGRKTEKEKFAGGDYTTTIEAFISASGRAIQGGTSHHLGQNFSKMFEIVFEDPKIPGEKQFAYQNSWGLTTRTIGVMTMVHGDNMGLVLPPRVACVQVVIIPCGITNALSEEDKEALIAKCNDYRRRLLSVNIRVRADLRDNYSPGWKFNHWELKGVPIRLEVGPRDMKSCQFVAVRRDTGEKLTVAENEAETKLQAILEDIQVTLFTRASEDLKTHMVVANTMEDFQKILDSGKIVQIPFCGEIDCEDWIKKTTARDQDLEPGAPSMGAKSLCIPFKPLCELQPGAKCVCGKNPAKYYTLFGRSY

FLAG-calpain 1 (human) = FLAG-calpain 1 (human) (UniProt P07384); assay: co-IP; FLAG-calpain 2 or FLAG-calpain 1 overexpressed in 293T; IP with anti-FLAG antibody, Western blot with antibodies against endogenous MSC components; mouse IgG as negative control
FLAG-calpain 2 (human) = FLAG-calpain 2 (human) (UniProt P17655); assay: as above
FLAG-ArgRSΔN63 (human) = molecular target: T4, FLAG-ArgRSΔN63 (human) (UniProt P54136); assay: co-IP; 293T extracts overexpressing FLAG-tagged full-length or truncated ArgRS, p43 or GlnRS; IP with FLAG antibody, Western blot with antibodies against MSC components
T4 sequence: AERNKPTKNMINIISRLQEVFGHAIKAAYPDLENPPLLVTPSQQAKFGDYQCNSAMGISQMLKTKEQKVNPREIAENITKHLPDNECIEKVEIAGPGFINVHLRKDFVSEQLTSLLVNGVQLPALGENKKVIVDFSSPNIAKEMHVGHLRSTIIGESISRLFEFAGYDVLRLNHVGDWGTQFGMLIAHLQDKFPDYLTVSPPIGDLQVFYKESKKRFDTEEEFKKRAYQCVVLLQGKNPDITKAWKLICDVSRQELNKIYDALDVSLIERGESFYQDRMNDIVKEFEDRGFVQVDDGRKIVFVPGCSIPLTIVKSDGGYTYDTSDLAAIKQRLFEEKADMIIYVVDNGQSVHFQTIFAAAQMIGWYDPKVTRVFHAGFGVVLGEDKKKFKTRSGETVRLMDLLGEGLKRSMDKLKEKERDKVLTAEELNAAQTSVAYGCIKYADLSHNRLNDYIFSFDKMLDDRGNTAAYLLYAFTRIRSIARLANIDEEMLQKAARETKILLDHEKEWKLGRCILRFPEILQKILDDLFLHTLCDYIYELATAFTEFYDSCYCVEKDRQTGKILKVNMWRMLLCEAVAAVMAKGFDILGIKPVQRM

B1: p43, endogenous, Q12904 1-312 (protein)
chain: T1 chain
- binding (FLAG-p43 (human), Q12904): binds
- binding [1]: binds
- binding [2]: binds

B2: AspRS-Myc, P14868 1-501 (enzyme)
chain: MPSASASRKSQEKPREIMDAAEDYAKERYGISSMIQSQEKPDRVLVRVRDLTIQKADEVVWVRARVHTSRAKGKQCFLVLRQQQFNVQALVAVGDHASKQMVKFAANINKESIVDVEGVVRKVNQKIGSCTQQDVELHVQKIYVISLAEPRLPLQLDDAVRPEAEGEEEGRATVNQDTRLDNRVIDLRTSTSQAVFRLQSGICHLFRETLINKGFVEIQTPKIISAASEGGANVFTVSYFKNNAYLAQSPQLYKQMCICADFEKVFSIGPVFRAEDSNTHRHLTEFVGLDIEMAFNYHYHEVMEEIADTMVQIFKGLQERFQTEIQTVNKQFPCEPFKFLEPTLRLEYCEALAMLREAGVEMGDEDDLSTPNEKLLGHLVKEKYDTDFYILDKYPLAVRPFYTMPDPRNPKQSNSYDMFMRGEEILSGAQRIHDPQLLTERALHHGIDLEKIKAYIDSFRFGAPPHAGGGIGLERVTMLFLGLHNVRQTSMFPRDPKRLTP
- binding [3]: binds

B3: MetRS-His6, P56192 1-900 (enzyme)
chain: MRLFVSDGVPGCLPVLAAAGRARGRAEVLISTVGPEDCVVPFLTRPKVPVLQLDSGNYLFSTSAICRYFFLLSGWEQDDLTNQWLEWEATELQPALSAALYYLVVQGKKGEDVLGSVRRALTHIDHSLSRQNCPFLAGETESLADIVLWGALYPLLQDPAYLPEELSALHSWFQTLSTQEPCQRAAETVLKQQGVLALRPYLQKQPQPSPAEGRAVTNEPEEEELATLSEEEIAMAVTAWEKGLESLPPLRPQQNPVLPVAGERNVLITSALPYVNNVPHLGNIIGCVLSADVFARYSRLRQWNTLYLCGTDEYGTATETKALEEGLTPQEICDKYHIIHADIYRWFNISFDIFGRTTTPQQTKITQDIFQQLLKRGFVLQDTVEQLRCEHCARFLADRFVEGVCPFCGYEEARGDQCDKCGKLINAVELKKPQCKVCRSCPVVQSSQHLFLDLPKLEKRLEEWLGRTLPGSDWTPNAQFITRSWLRDGLKPRCITRDLKWGTPVPLEGFEDKVFYVWFDATIGYLSITANYTDQWERWWKNPEQVDLYQFMAKDNVPFHSLVFPCSALGAEDNYTLVSHLIATEYLNYEDGKFSKSRGVGVFGDMAQDTGIPADIWRFYLLYIRPEGQDSAFSWTDLLLKNNSELLNNLGNFINRAGMFVSKFFGGYVPEMVLTPDDQRLLAHVTLELQHYHQLLEKVRIRDALRSILTISRHGNQYIQVNEPWKRIKGSEADRQRAGTVTGLAVNIAALLSVMLQPYMPTVSATIQAQLQLPPPACSILLTNFLCTLPAGHQIGTVSPLFQKLENDQIESLRQRFGGGQAKTSPKPAVVETVTTAKPQQIQALMDEVTKQGNIVRELKAQKADKNEVAAEVAKLLDLKKQLAVAEGKPPEAPKGKKKK
- binding [3]: binds

B4: p43, endogenous (protein, UniProt Q12904 1-312)
chain: T1 chain
- binding (FLAG-calpain 1 (human)): no binding
- binding (FLAG-calpain 2 (human)): binds
- binding (FLAG-ArgRSΔN63 (human)): no binding

B5: p38, endogenous (protein, UniProt Q13155 1-320)
chain: MPMYQVKPYHGGGAPLRVELPTCMYRLPNVHGRSYGPAPGAGHVQEESNLSLQALESRQDDILKRLYELKAAVDGLSKMIQTPDADLDVTNIIQADEPTTLTTNALDLNSVLGKDYGALKDIVINANPASPPLSLLVLHRLLCEHFRVLSTVHTHSSVKSVPENLLKCFGEQNKKQPRQDYQLGFTLIWKNVPKTQMKFSIQTMCPIEGEGNIARFLFSLFGQKHNAVNATLIDSWVDIAIFQLKEGSSKEKAAVFRSMNSALGKSPWLAGNELTVADVVLWSVLQQIGGCSVTVPANVQRWMRSCENLAPFNTALKLLK
- binding (FLAG-ArgRSΔN63 (human)): no binding

— PMC4646279
